We go through 1 molecule from article PMC3764422, “A model of yeast glycolysis based on a consistent kinetic characterisation of all its enzymes” (Febs Letters, 2013).

These are yes or no findings as the source states them, for the method shown. Some results given as binding are weak or reduced against the parent protein; the word gives no strength.

This test deals with T1, phosphofructokinase beta subunit Pfk2p (S. cerevisiae) (UniProt P16862).
T1 sequence: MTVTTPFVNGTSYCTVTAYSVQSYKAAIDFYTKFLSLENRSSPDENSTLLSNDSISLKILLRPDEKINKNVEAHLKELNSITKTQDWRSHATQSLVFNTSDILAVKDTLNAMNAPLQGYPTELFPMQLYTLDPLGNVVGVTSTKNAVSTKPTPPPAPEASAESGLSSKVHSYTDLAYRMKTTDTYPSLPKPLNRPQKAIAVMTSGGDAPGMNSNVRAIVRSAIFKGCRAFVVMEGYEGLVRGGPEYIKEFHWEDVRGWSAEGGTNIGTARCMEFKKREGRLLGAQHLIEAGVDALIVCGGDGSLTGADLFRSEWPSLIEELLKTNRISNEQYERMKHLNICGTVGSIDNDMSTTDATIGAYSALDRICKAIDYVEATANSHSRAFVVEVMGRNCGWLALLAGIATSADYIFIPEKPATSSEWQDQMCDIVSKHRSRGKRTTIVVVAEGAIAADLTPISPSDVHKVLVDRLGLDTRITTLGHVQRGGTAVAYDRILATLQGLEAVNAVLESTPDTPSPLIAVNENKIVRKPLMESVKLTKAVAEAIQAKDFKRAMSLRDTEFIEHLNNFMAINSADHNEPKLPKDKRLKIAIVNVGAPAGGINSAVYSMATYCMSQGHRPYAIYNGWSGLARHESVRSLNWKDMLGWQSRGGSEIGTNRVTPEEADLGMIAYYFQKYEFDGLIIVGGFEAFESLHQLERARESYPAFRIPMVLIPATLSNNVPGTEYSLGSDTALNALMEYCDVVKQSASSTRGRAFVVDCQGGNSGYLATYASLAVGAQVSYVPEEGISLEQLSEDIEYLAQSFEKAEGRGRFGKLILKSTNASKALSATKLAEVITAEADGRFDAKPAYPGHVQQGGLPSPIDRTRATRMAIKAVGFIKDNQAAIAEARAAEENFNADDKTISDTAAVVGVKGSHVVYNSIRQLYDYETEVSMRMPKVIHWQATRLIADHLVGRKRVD
The experiment in a line: co-purification; PFK1 and PFK2 co-expressed in S. cerevisiae; protein products co-purified from the Yeast TAP-Tagged collection.

B1: phosphofructokinase alpha subunit Pfk1p (enzyme, UniProt P16861 1-987)
chain: MQSQDSCYGVAFRSIITNDEALFKKTIHFYHTLGFATVKDFNKFKHGENSLLSSGTSQDSLREVWLESFKLSEVDASGFRIPQQEATNKAQSQGALLKIRLVMSAPIDETFDTNETATITYFSTDLNKIVEKFPKQAEKLSDTLVFLKDPMGNNITFSGLANATDSAPTSKDAFLEATSEDEIISRASSDASDLLRQTLGSSQKKKKIAVMTSGGDSPGMNAAVRAVVRTGIHFGCDVFAVYEGYEGLLRGGKYLKKMAWEDVRGWLSEGGTLIGTARSMEFRKREGRRQAAGNLISQGIDALVVCGGDGSLTGADLFRHEWPSLVDELVAEGRFTKEEVAPYKNLSIVGLVGSIDNDMSGTDSTIGAYSALERICEMVDYIDATAKSHSRAFVVEVMGRHCGWLALMAGIATGADYIFIPERAVPHGKWQDELKEVCQRHRSKGRRNNTIIVAEGALDDQLNPVTANDVKDALIELGLDTKVTILGHVQRGGTAVAHDRWLATLQGVDAVKAVLEFTPETPSPLIGILENKIIRMPLVESVKLTKSVATAIENKDFDKAISLRDTEFIELYENFLSTTVKDDGSELLPVSDRLNIGIVHVGAPSAALNAATRAATLYCLSHGHKPYAIMNGFSGLIQTGEVKELSWIDVENWHNLGGSEIGTNRSVASEDLGTIAYYFQKNKLDGLIILGGFEGFRSLKQLRDGRTQHPIFNIPMCLIPATVSNNVPGTEYSLGVDTCLNALVNYTDDIKQSASATRRRVFVCEVQGGHSGYIASFTGLITGAVSVYTPEKKIDLASIREDITLLKENFRHDKGENRNGKLLVRNEQASSVYSTQLLADIISEASKGKFGVRTAIPGHVQQGGVPSSKDRVTASRFAVKCIKFIEQWNKKNEASPNTDAKVLRFKFDTHGEKVPTVEHEDDSAAVICVNGSHVSFKPIANLWENETNVELRKGFEVHWAEYNKIGDILSGRLKLRAEVAALAAENK
As to B1, the binding result was “binds”.
